# Assay results published in US20050096323A1, “Diketopiperazine derivatives to inhibit thrombin” (NovoScience Pharma Inc., priority 1999, published 2005).
# For at least one compound, name, drawing or mass did not settle the structure.
# Test system: pooled normal human plasma
# Assay: Ex vivo coagulation assay (APTT prolongation)
# Format: biochemical
# Settings: normal citrated human plasma, FIG. 5
compound,measurement,value
"CC1CNc2c(cccc2S(=O)(=O)N[C@@H](CCCNC(=N)N)C(=O)N2CC[C@@H](C)C[C@@H]2C(=O)O)C1 (stereo partly shown) [Argatroban, reference compound]",effect on activated partial thromboplastin time (APTT),prolonged the APTT in a dose dependent manner
